Data taken from the supplement of paper PMC10338343.
± gives the standard deviation. This is one part of the list. Many of these values have a large error.

Test system: EfPiwi piRISC loaded with L1MC piRNA (26 nt)
Test: pre-steady-state target cleavage rate (min^-1); guide: L1MC piRNA 5'p-UAACUAAAUACUAUGCAAGCUGUAGG; MIWI and MILI are mouse PIWI proteins and EfPiwi is from a freshwater sponge; tags in brackets are library labels; higher = faster piRNA-guided slicing of the target
In short: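 A transcribed, DNA-blocked target RNA library (0.1 nM) and 1 nM active affinity-purified piRISC bearing one synthetic guide were incubated in HEPES–potassium acetate buffer at 33 °C for 0–8 or 0–960 min, either with or without 500 nM GTSF1 partner protein. Uncleaved targets were sequenced, normalised to depth and to weakly complementary targets, and pooled over three trials, with k3 capped at 0.0001 min^-1. The pre-steady-state cleavage rate was derived with a burst-and-steady-state fit.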

[1] = auxiliary factor: 500 nM Ephydatia muelleri Gtsf1
[2] = auxiliary factor: none (no Gtsf1)

Row | Sequence | pre-steady-state target cleavage rate [1] | pre-steady-state target cleavage rate [2]
1 | UCCUGGAUGUCCUUGCAUAGUAUUUAAGUUA | 0.0217 ± 0.0093 | –
2 | UCCUGGAUCAGGUUGCAUAGUAUUAAGUUA | – | 0.000665 ± 0.015
3 | UCCUGGAUGUCGAUGAUAGUAUUUAGUUA | 0.000655 ± 0.0076 | –
4 | UCCUGGAUGUGCUUGCAUUGUAUUAAGUUA | 0.000452 ± 0.0082 | –
5 | UCCUCCUACUGCUUGCAUAGUUUUUAGUUA | 0.0079 ± 0.0028 | –
6 | UCCUGGAACAGCUUGCUUACUAUUUAGUUA | 0.00758 ± 0.0029 | –
7 | UCCUCCAACAGCUUGCAAAGUAUUUAGUUA | 0.0132 ± 0.0038 | –
8 | UCCUGCUACUGCUUGCAUAGUAUUUAGUUA | 0.00883 ± 0.003 | –
9 | UCCUCGUUCAGCUUGCAUAGUAUUUAGUUA | 0.104 ± 0.021 | –
10 | UCCUCCUACACUUGCAUAGUAUUUAGUUA | 0.049 ± 0.015 | –
11 | UCCUGGAUGUGCUCGCAUAGUAUUUAGUUA | – | 0.00133 ± 0.0076
12 | UCCUCCUACAGCUUGGAUAGUAAUUAGUUA | 0.0274 ± 0.0089 | –
13 | UCCUGGAUGUCGAACCAUAGGUAUUUAGUUA | – | 0.000149 ± 0.039
14 | UCCUGGUAGAGCUUGCAUAGUAUUUAGAUA | 0.00178 ± 0.0044 | –
15 | UCCUGGAUGUCGUUGCAUAGUAUUUUCAAA [g6:g18:cont:t1A] | 0.00141 ± 0.006 | –
16 | UCCUGGUACAGCUUGCAUACUUUUUAGUUA | 0.00064 ± 0.02 | –
17 | UCCUCCAACAGCUUGCAUAGUAAUUAGUUA | 0.0103 ± 0.0047 | –
18 | UCCUGGAUGUCCUUGCAUACUAUUUAGUUA | – | 0.00067 ± 0.0084
19 | UCCUGGUACAGCUUGGAUAGUAUUAAGUUA | 0.00235 ± 0.0032 | –
20 | UCCUCCUACAGCUUGCAUAGUAAUUUAGUUA | 0.00821 ± 0.0033 | –
21 | UCCUGGAUGUGCUAGCAUAGUAUUUAGUAA | 0.00107 ± 0.0056 | –
22 | UCCUGCUACAGCAUGCUUAGUAUUUAGUUA | 0.0122 ± 0.0038 | –
23 | UCCUCCUACAGGUUGCAUUGUAUUUAGUUA | 0.0124 ± 0.0028 | –
24 | UCCUGGUACAGCUUGCAUAGUUAUUAGUUA | – | 0.000939 ± 0.0097
25 | UCCUGCUACAGCUUGCAGAGUAUUUAGUUA | – | 0.000916 ± 0.006

Row | Sequence | pre-steady-state target cleavage rate [1] | pre-steady-state target cleavage rate [2]
26 | UCCUGGAUGAGCAUGCAAAGUAUUUAGUUA | 0.00414 ± 0.0036 | –
27 | UCCUCCUACUGCAUGCAUAGUAUUUAGUUA | 0.0706 ± 0.019 | –
28 | UCCUGGAUCAGCUUGCAUAGUAAUUAGUAA | 0.00487 ± 0.0027 | –
29 | UCCUGCUAGAGCUAGCAUAGUAUUUAGUUA | 0.00618 ± 0.0016 | –
30 | UCCUGGAUGUCGAUUGCAUAGUAUUUAGUUA | 0.00712 ± 0.0027 | –
31 | UCCUGGAUGAGCUUGCAUAGUAUUUUGUUA | 0.00491 ± 0.0017 | –
32 | UCCUGGUUCAGCUUGCAUAGUAUUUAGUUA | 0.0765 ± 0.018 | –
33 | UCCUGGAUGUCGUUGGUAAGUAUUUAGUUA | < 0.0001 | –
34 | UCCUGGUACAGCUAGCAUAGUUUUUAGUUA | 0.00236 ± 0.0026 | –
35 | UCCUGGAUGUCGAACGUAUGUAUCUUAGUUA | – | 0.000147 ± 0.032
36 | UCCUGGAUGUCGUUGCAUAGUAUUAUCAAA [g7:g18:cont:t1A] | 0.00024 ± 0.013 | –
37 | UCCUGGAUCAGUUGCAUAGUAUUUAGUUA | 0.0258 ± 0.0051 | –
38 | UCCUGCUACAGCUUGCAUAGUAUUAUAGUUA | 0.0103 ± 0.0037 | –
39 | UCCUGCUACAGGAUGCAUAGUAUUUAGUUA | 0.0191 ± 0.0043 | –
40 | UCCUGGAACUGCUUGCAUAGUAUUUAGUUA | 0.0203 ± 0.006 | –
41 | UCCUGGAACUCCUUGCAUAGUAUUUAGUAA | 0.00371 ± 0.0017 | –
42 | UCCUCCUACAGCUUGCAUAGUAUUUAGUAA | 0.0113 ± 0.005 | –
43 | UCCUGGAUGACCUUGCAUAGUAUUUAGUUA | – | 0.00101 ± 0.0089
44 | UCCUGGAUGAGCUUGCCUAGUAUUUAGUUA | 0.00623 ± 0.0037 | –
45 | UCCUGGAUGUCGAACCAUAGUAUUUAGUGA | – | 0.000121 ± 0.051
46 | UCCUGGUACACUUGCAUAGUAUUUAGUUA | 0.00407 ± 0.0024 | –
47 | UCCUGCUACAGCUUGCUAUGUAUUUAGUUA | 0.00243 ± 0.0043 | –
48 | UCCUGGAUGUCGAACGUUAGUAAUUAGUAA | – | < 0.0001
49 | UCCUCCUACAGCUUGCAUAGUAUAAAGUAA | – | 0.000384 ± 0.017
50 | UCCUGGAACAGCUUGACAUAGUAUUUAGUUA | 0.013 ± 0.004 | –

Row | Sequence | pre-steady-state target cleavage rate [1] | pre-steady-state target cleavage rate [2]
51 | UCCUCCUACUGCUUCCAUAGUAUUUAGUUA | 0.0043 ± 0.0018 | –
52 | UCCUGGAUGUCGAACGUAUGAUAUUAGUUA | – | 0.000264 ± 0.022
53 | UCCUGGAUGUGAUUGCAUAGUAUUUAGUUA | 0.00623 ± 0.0031 | –
54 | UCCUGGAACAGCUUACAUAGUAUUUAGUUA | 0.0502 ± 0.012 | –
55 | UCCUGGUACAGGAUGCAUAGUAUUUAGUUA | 0.00598 ± 0.003 | –
56 | UCCUGCUACAGCUUGCAUAGUAAUUAGUUA | 0.0061 ± 0.0022 | –
57 | UCCUGCUACAGGUUGCAUAGUAAUUAGUUA | 0.00595 ± 0.0019 | 0.00123 ± 0.0086
58 | UCCUGGAUCAGCUUGCAUAGUAUUUAAGUUA | 0.00608 ± 0.0023 | 0.00215 ± 0.0073
59 | UCCUGCUACAGCUUGGAAAGUAUUUAGUUA | 0.0208 ± 0.0042 | 0.00225 ± 0.0038
60 | UCCUGGAUCAGCUUGCAGAGUAUUUAGUUA | 0.00715 ± 0.0022 | 0.000394 ± 0.021
61 | UCCUGGAUCACGUUGCAUAGUAUUUAGUUA | 0.0686 ± 0.017 | 0.00188 ± 0.0074
62 | UCCUGGAUCUCGUUGCAUAGUAUUUAGUUA | 0.0466 ± 0.011 | 0.00142 ± 0.0066
63 | UCCUGGAUCACCUUGCAUAGUAUUUACAAA | 0.000341 ± 0.017 | 0.000109 ± 0.063
64 | UCCUGGAUCAGCUUGCAUUGUAAUUAGUUA | 0.00179 ± 0.0017 | 0.000427 ± 0.017
65 | UCCUGGAUGAGCAUUGCAUAGUAUUUAGUUA | 0.008 ± 0.0029 | 0.00132 ± 0.0061
66 | UCCUGGAUGAGCUAGCAUUGUAUUUAGUUA | 0.00519 ± 0.0032 | 0.00038 ± 0.015
67 | UCCUGGAUGACGUUGCAUAGUAUUUAGUUA | 0.00512 ± 0.0026 | 0.000403 ± 0.038
68 | UCCUGGAUGUCCUUGCAUAGUAUUUUAGUUA | 0.00287 ± 0.0028 | 0.000531 ± 0.015
69 | UCCUGGAACAUGCUUGCAUAGUAUUUAGUUA | 0.0178 ± 0.0057 | 0.00169 ± 0.0067
70 | UCCUGGUACAGCUAGCAUUGUAUUUAGUUA | 0.00108 ± 0.01 | 0.000832 ± 0.012
71 | UCCUGGUAGAGCAUGCAUAGUAUUUAGUUA | 0.0134 ± 0.004 | 0.000814 ± 0.013
72 | UCCUGCUACAGCUUGCAAAGUAAUUAGUUA | 0.00362 ± 0.0019 | 0.000284 ± 0.019
73 | UCCUGGAUGUGCUUGCAUAGUAAUUUGUUA | 0.000779 ± 0.0044 | 0.000178 ± 0.037
74 | UCCUGGAUGAGCUUGCAUAGUAUUGUAGUUA | 0.00171 ± 0.0039 | 0.00132 ± 0.0096
75 | UCCUGGAUGUGCUUGCAUAGUAUUUAAGUUA | 0.0404 ± 0.015 | 0.000956 ± 0.02

Some of the entries so far, as tab-separated lines.
Row	Sequence	pre-steady-state target cleavage rate [1]	pre-steady-state target cleavage rate [2]
60	UCCUGGAUCAGCUUGCAGAGUAUUUAGUUA	0.00715 ± 0.0022	0.000394 ± 0.021
61	UCCUGGAUCACGUUGCAUAGUAUUUAGUUA	0.0686 ± 0.017	0.00188 ± 0.0074
62	UCCUGGAUCUCGUUGCAUAGUAUUUAGUUA	0.0466 ± 0.011	0.00142 ± 0.0066
63	UCCUGGAUCACCUUGCAUAGUAUUUACAAA	0.000341 ± 0.017	0.000109 ± 0.063
64	UCCUGGAUCAGCUUGCAUUGUAAUUAGUUA	0.00179 ± 0.0017	0.000427 ± 0.017
65	UCCUGGAUGAGCAUUGCAUAGUAUUUAGUUA	0.008 ± 0.0029	0.00132 ± 0.0061
66	UCCUGGAUGAGCUAGCAUUGUAUUUAGUUA	0.00519 ± 0.0032	0.00038 ± 0.015

(further entries)

Row | Sequence | pre-steady-state target cleavage rate [1] | pre-steady-state target cleavage rate [2]
76 | UCCUCCUACAGCUUGCAUAGUAUUUAGCUA | 0.00335 ± 0.0016 | 0.000483 ± 0.0095
77 | UCCUGGAUCAGCAUGCAUAGUUUUUAGUUA | 0.00291 ± 0.0027 | 0.000347 ± 0.02
78 | UCCUGGAUGAGCCUGCAUAGUAUUUAGUUA | 0.032 ± 0.011 | 0.00102 ± 0.0098
79 | UCCUGGUACAGCUUGCAUAGUAUUUCAGUUA | 0.00172 ± 0.0063 | 0.000417 ± 0.027
80 | UCCUGCUACAGCUUGCAUAGAUUUUAGUUA | 0.00194 ± 0.0023 | 0.000812 ± 0.0086
81 | UCCUGGUACAGCUUUCAUAGUAUUUAGUUA | 0.00404 ± 0.0023 | 0.000106 ± 0.04
82 | UCCUGGUACAGCUUGCAUAGCAUUUAGUUA | 0.00214 ± 0.0027 | 0.000914 ± 0.0094
83 | UCCUGGAUGAGCUUGCAUAGUAUGUUAGUUA | 0.00879 ± 0.0036 | 0.0026 ± 0.0046
84 | UCCUGGAACAGCUUGCAUAGUCAUUUAGUUA | 0.00111 ± 0.0045 | 0.000444 ± 0.015
85 | UCCUGGAACAGGUUGCAUAGUAUUUUGUUA | 0.00366 ± 0.0015 | 0.000549 ± 0.018
86 | UCCUGGUUCAGCUUGCAUUGUAUUUAGUUA | 0.0223 ± 0.007 | 0.00144 ± 0.008
87 | UCCUGCAACAGGUUGCAUAGUAUUUAGUUA | 0.018 ± 0.0035 | 0.000158 ± 0.029
88 | UCCUGGAACAGCUUGCAUAGAUUUUAGUUA | 0.000858 ± 0.0058 | 0.000599 ± 0.013
89 | UCCUGCUACAGCUUGCAUAGUAUUUGAGUUA | 0.0068 ± 0.0022 | 0.00121 ± 0.0065
90 | UCCUGGAUGAGCAUGGAUAGUAUUUAGUUA | 0.00257 ± 0.0028 | 0.000282 ± 0.034
91 | UCCUCCUACAGCUUGCAAGUAUUUAGUUA | 0.00641 ± 0.0026 | 0.000999 ± 0.0064
92 | UCCUGGAUCAGCUUGCAUAGUAUUAUCAAA | 0.000959 ± 0.0039 | 0.000194 ± 0.036
93 | UCCUGGUUCAGCUUGCAUACUAUUUAGUUA | 0.00751 ± 0.0031 | 0.00157 ± 0.0091
94 | UCCUGGAUGUCCUUGCAUAGUAUUCAGUUA | 0.000889 ± 0.0035 | 0.000121 ± 0.022
95 | UCCUGGAAGAGCAUGCAUAGUAUUUAGUUA | 0.0132 ± 0.004 | 0.00169 ± 0.0076
96 | UCCUGGAACAGCUUAGCAUAGUAUUUAGUUA | 0.0218 ± 0.0061 | 0.000477 ± 0.018
97 | UCCUGGUACUGCUUGCAUAGUAUUUAGAUA | 0.00378 ± 0.0019 | 0.00045 ± 0.02
